# In the supplement of paper PMC8728848:
# Some of the results follow.
# B1: C7A (Sus scrofa) (peptide)
# chain: KILRGVCKKIMRTFLRRISKKILTGKK
# Key:
# Test in all cases: glycan array binding signal (z-score within array); higher = stronger binding
# Conditions in all cases: glycan notation: IUPAC condensed, linker removed; mutation: D21K
# [1] = target: Gal(b1-4)GlcNAc(b1-2)[Gal(b1-4)GlcNAc(b1-4)]Man(a1-3)[Gal(b1-4)GlcNAc(b1-2)[Gal(b1-4)GlcNAc(b1-6)]Man(a1-6)]Man(b1-4)GlcNAc(b1-4)GlcNAc
# Summary of the method: (§1)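 The Consortium for Functional Glycomics database supplied 3228 glycan arrays, of which those lacking an available protein sequence were dropped. The binding signal, a within-array Z-score, was averaged across arrays of the same protein sequence and across linkers. Negative scores can be read as non-binding.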
# [2] = target: Gal(b1-4)GlcNAc(b1-2)[Gal(b1-4)GlcNAc(b1-4)]Man(a1-3)[GlcNAc(b1-4)][Gal(b1-4)GlcNAc(b1-2)Man(a1-6)]Man(b1-4)GlcNAc(b1-4)GlcNAc
# Summary of the method: as §1
# [3] = target: Gal(b1-4)GlcNAc(b1-2)[Gal(b1-4)GlcNAc(b1-4)]Man(a1-3)[GlcNAc(b1-4)][Gal(b1-4)GlcNAc(b1-2)[Gal(b1-4)GlcNAc(b1-6)]Man(a1-6)]Man(b1-4)GlcNAc(b1-4)GlcNAc
# Summary of the method: as §1
# [4] = target: Gal(b1-4)GlcNAc(b1-2)[Gal(b1-4)GlcNAc(b1-6)]Man(a1-6)[Gal(b1-4)GlcNAc(b1-2)Man(a1-3)]Man(b1-4)GlcNAc(b1-4)GlcNAc
# Summary of the method: as §1
# [5] = target: Gal(b1-4)GlcNAc(b1-2)[Gal(b1-4)GlcNAc(b1-6)]Man(a1-6)[Gal(b1-4)GlcNAc(b1-2)Man(a1-3)]Man(b1-4)GlcNAc(b1-4)[Fuc(a1-6)]GlcNAc
# Summary of the method: as §1
# [6] = target: Gal(b1-4)GlcNAc(b1-2)[Gal(b1-4)GlcNAc(b1-6)]Man(a1-6)[GlcNAc(b1-4)][Gal(b1-4)GlcNAc(b1-2)Man(a1-3)]Man(b1-4)GlcNAc(b1-4)GlcNAc
# Summary of the method: as §1
# [7] = target: Gal(b1-4)GlcNAc(b1-2)[Gal(b1-4)GlcNAc(b1-6)]Man(a1-6)[GlcNAc(b1-4)][Gal(b1-4)GlcNAc(b1-2)[Gal(b1-4)GlcNAc(b1-4)]Man(a1-3)]Man(b1-4)GlcNAc(b1-4)[Fuc(a1-6)]GlcNAc
# Summary of the method: as §1
# [8] = target: Gal(b1-4)GlcNAc(b1-3)Gal(b1-3)GalNAc
# Summary of the method: as §1
# [9] = target: Gal(b1-4)GlcNAc(b1-3)Gal(b1-3)GlcNAc
# Summary of the method: as §1
# [10] = target: Gal(b1-4)GlcNAc(b1-3)Gal(b1-4)Glc
# Summary of the method: as §1
# [11] = target: Gal(b1-4)GlcNAc(b1-3)Gal(b1-4)GlcNAc
# Summary of the method: as §1
# [12] = target: Gal(b1-4)GlcNAc(b1-3)Gal(b1-4)GlcNAc(b1-2)Man(a1-3)[Gal(b1-4)GlcNAc(b1-3)Gal(b1-4)GlcNAc(b1-2)Man(a1-6)]Man(b1-4)GlcNAc(b1-4)GlcNAc
# Summary of the method: as §1
# [13] = target: Gal(b1-4)GlcNAc(b1-3)Gal(b1-4)GlcNAc(b1-2)Man(a1-3)[Gal(b1-4)GlcNAc(b1-3)Gal(b1-4)GlcNAc(b1-2)Man(a1-6)]Man(b1-4)GlcNAc(b1-4)[Fuc(a1-6)]GlcNAc
# Summary of the method: as §1
# [14] = target: Gal(b1-4)GlcNAc(b1-3)Gal(b1-4)GlcNAc(b1-2)[Gal(b1-4)GlcNAc(b1-3)Gal(b1-4)GlcNAc(b1-6)]Man(a1-6)[Gal(b1-4)GlcNAc(b1-3)Gal(b1-4)GlcNAc(b1-2)Man(a1-3)]Man(b1-4)GlcNAc(b1-4)GlcNAc
# Summary of the method: as §1
# [15] = target: Gal(b1-4)GlcNAc(b1-3)Gal(b1-4)GlcNAc(b1-2)[Gal(b1-4)GlcNAc(b1-3)Gal(b1-4)GlcNAc(b1-6)]Man(a1-6)[Gal(b1-4)GlcNAc(b1-3)Gal(b1-4)GlcNAc(b1-2)Man(a1-3)]Man(b1-4)GlcNAc(b1-4)[Fuc(a1-6)]GlcNAc
# Summary of the method: as §1
# [16] = target: Gal(b1-4)GlcNAc(b1-3)Gal(b1-4)GlcNAc(b1-3)Gal(b1-4)GlcNAc
# Summary of the method: as §1
# [17] = target: Gal(b1-4)GlcNAc(b1-3)Gal(b1-4)GlcNAc(b1-3)Gal(b1-4)GlcNAc(b1-2)Man(a1-3)[Gal(b1-4)GlcNAc(b1-3)Gal(b1-4)GlcNAc(b1-3)Gal(b1-4)GlcNAc(b1-2)Man(a1-6)]Man(b1-4)GlcNAc(b1-4)GlcNAc
# Summary of the method: as §1
# [18] = target: Gal(b1-4)GlcNAc(b1-3)Gal(b1-4)GlcNAc(b1-3)Gal(b1-4)GlcNAc(b1-2)Man(a1-3)[Gal(b1-4)GlcNAc(b1-3)Gal(b1-4)GlcNAc(b1-3)Gal(b1-4)GlcNAc(b1-2)Man(a1-6)]Man(b1-4)GlcNAc(b1-4)[Fuc(a1-6)]GlcNAc
# Summary of the method: as §1
# [19] = target: Gal(b1-4)GlcNAc(b1-3)Gal(b1-4)GlcNAc(b1-3)Gal(b1-4)GlcNAc(b1-2)[Gal(b1-4)GlcNAc(b1-3)Gal(b1-4)GlcNAc(b1-3)Gal(b1-4)GlcNAc(b1-6)]Man(a1-6)[Gal(b1-4)GlcNAc(b1-3)Gal(b1-4)GlcNAc(b1-3)Gal(b1-4)GlcNAc(b1-2)Man(a1-3)]Man(b1-4)GlcNAc(b1-4)[Fuc(a1-6)]GlcNAc
# Summary of the method: as §1
# [20] = target: Gal(b1-4)GlcNAc(b1-3)Gal(b1-4)GlcNAc(b1-3)Gal(b1-4)GlcNAc(b1-3)Gal(b1-4)GlcNAc(b1-2)Man(a1-3)[Gal(b1-4)GlcNAc(b1-3)Gal(b1-4)GlcNAc(b1-3)Gal(b1-4)GlcNAc(b1-3)Gal(b1-4)GlcNAc(b1-2)Man(a1-6)]Man(b1-4)GlcNAc(b1-4)GlcNAc
# Summary of the method: as §1
# [21] = target: Gal(b1-4)GlcNAc(b1-3)Gal(b1-4)GlcNAc(b1-3)Gal(b1-4)GlcNAc(b1-3)Gal(b1-4)GlcNAc(b1-2)Man(a1-3)[Gal(b1-4)GlcNAc(b1-3)Gal(b1-4)GlcNAc(b1-3)Gal(b1-4)GlcNAc(b1-3)Gal(b1-4)GlcNAc(b1-2)Man(a1-6)]Man(b1-4)GlcNAc(b1-4)[Fuc(a1-6)]GlcNAc
# Summary of the method: as §1
# [22] = target: Gal(b1-4)GlcNAc(b1-3)Gal(b1-4)GlcNAc(b1-3)Gal(b1-4)GlcNAc(b1-3)Gal(b1-4)GlcNAc(b1-2)[Gal(b1-4)GlcNAc(b1-3)Gal(b1-4)GlcNAc(b1-3)Gal(b1-4)GlcNAc(b1-3)Gal(b1-4)GlcNAc(b1-6)]Man(a1-6)[Gal(b1-4)GlcNAc(b1-3)Gal(b1-4)GlcNAc(b1-3)Gal(b1-4)GlcNAc(b1-3)Gal(b1-4)GlcNAc(b1-2)Man(a1-3)]Man(b1-4)GlcNAc(b1-4)[Fuc(a1-6)]GlcNAc
# Summary of the method: as §1
# [23] = target: Gal(b1-4)GlcNAc(b1-3)Gal(b1-4)GlcNAc(b1-3)Gal(b1-4)GlcNAc(b1-3)Gal(b1-4)GlcNAc(b1-3)Gal(b1-4)GlcNAc(b1-2)Man(a1-3)[Gal(b1-4)GlcNAc(b1-3)Gal(b1-4)GlcNAc(b1-3)Gal(b1-4)GlcNAc(b1-3)Gal(b1-4)GlcNAc(b1-3)Gal(b1-4)GlcNAc(b1-2)Man(a1-6)]Man(b1-4)GlcNAc(b1-4)GlcNAc
# Summary of the method: as §1
# [24] = target: Gal(b1-4)GlcNAc(b1-3)Gal(b1-4)GlcNAc(b1-3)Gal(b1-4)GlcNAc(b1-3)Gal(b1-4)GlcNAc(b1-3)Gal(b1-4)GlcNAc(b1-2)Man(a1-3)[Gal(b1-4)GlcNAc(b1-3)Gal(b1-4)GlcNAc(b1-3)Gal(b1-4)GlcNAc(b1-3)Gal(b1-4)GlcNAc(b1-3)Gal(b1-4)GlcNAc(b1-2)Man(a1-6)]Man(b1-4)GlcNAc(b1-4)[Fuc(a1-6)]GlcNAc
# Summary of the method: as §1
# [25] = target: Gal(b1-4)GlcNAc(b1-3)Gal(b1-4)GlcNAc(b1-3)Gal(b1-4)GlcNAc(b1-3)Gal(b1-4)GlcNAc(b1-3)Gal(b1-4)GlcNAc(b1-2)[Gal(b1-4)GlcNAc(b1-3)Gal(b1-4)GlcNAc(b1-3)Gal(b1-4)GlcNAc(b1-3)Gal(b1-4)GlcNAc(b1-3)Gal(b1-4)GlcNAc(b1-6)]Man(a1-6)[Gal(b1-4)GlcNAc(b1-3)Gal(b1-4)GlcNAc(b1-3)Gal(b1-4)GlcNAc(b1-3)Gal(b1-4)GlcNAc(b1-3)Gal(b1-4)GlcNAc(b1-2)Man(a1-3)]Man(b1-4)GlcNAc(b1-4)[Fuc(a1-6)]GlcNAc
# Summary of the method: as §1
# [26] = target: Gal(b1-4)GlcNAc(b1-3)Gal(b1-4)GlcNAc(b1-3)Gal(b1-4)GlcNAc(b1-3)Gal(b1-4)GlcNAc(b1-3)Gal(b1-4)GlcNAc(b1-3)Gal(b1-4)GlcNAc(b1-2)Man(a1-3)[Gal(b1-4)GlcNAc(b1-3)Gal(b1-4)GlcNAc(b1-3)Gal(b1-4)GlcNAc(b1-3)Gal(b1-4)GlcNAc(b1-3)Gal(b1-4)GlcNAc(b1-3)Gal(b1-4)GlcNAc(b1-2)Man(a1-6)]Man(b1-4)GlcNAc(b1-4)GlcNAc
# Summary of the method: as §1
# [27] = target: Gal(b1-4)GlcNAc(b1-3)Gal(b1-4)GlcNAc(b1-3)GalNAc
# Summary of the method: as §1
binder,measurement,setting,value
B1,glycan array binding signal (z-score),[1],-1.9
same,glycan array binding signal (z-score),[2],-0.102
same,glycan array binding signal (z-score),[3],0.687
same,glycan array binding signal (z-score),[4],0.256
same,glycan array binding signal (z-score),[5],1.17
same,glycan array binding signal (z-score),[6],-0.597
same,glycan array binding signal (z-score),[7],0.179
same,glycan array binding signal (z-score),[8],1.19
same,glycan array binding signal (z-score),[9],-1.71
same,glycan array binding signal (z-score),[10],-0.403
same,glycan array binding signal (z-score),[11],-0.128
same,glycan array binding signal (z-score),[12],1.08
same,glycan array binding signal (z-score),[13],3.05
same,glycan array binding signal (z-score),[14],-0.48
same,glycan array binding signal (z-score),[15],0.618
same,glycan array binding signal (z-score),[16],-1.19
same,glycan array binding signal (z-score),[17],1.22
same,glycan array binding signal (z-score),[18],1.93
same,glycan array binding signal (z-score),[19],0.442
same,glycan array binding signal (z-score),[20],0.053
same,glycan array binding signal (z-score),[21],1.59
same,glycan array binding signal (z-score),[22],-0.172
same,glycan array binding signal (z-score),[23],0.909
same,glycan array binding signal (z-score),[24],0.455
same,glycan array binding signal (z-score),[25],1.52
same,glycan array binding signal (z-score),[26],0.329
same,glycan array binding signal (z-score),[27],2.33

# A different layout for some results above:
binder	measurement	setting	value
B1	glycan array binding signal (z-score)	[2]	-0.102
same	glycan array binding signal (z-score)	[3]	0.687
